Results are given in words; binding and its absence hold for the method and conditions named. In cells and extracts the contact can be indirect. Some entries that bind do so weakly or less than the wild type. Sequences can lack the tags named with a protein.
Biological target: T1, RNase E with an N-terminal flag tag, genomically encoded in C. crescentus (Caulobacter crescentus) (UniProt Q9A749)
T1 sequence: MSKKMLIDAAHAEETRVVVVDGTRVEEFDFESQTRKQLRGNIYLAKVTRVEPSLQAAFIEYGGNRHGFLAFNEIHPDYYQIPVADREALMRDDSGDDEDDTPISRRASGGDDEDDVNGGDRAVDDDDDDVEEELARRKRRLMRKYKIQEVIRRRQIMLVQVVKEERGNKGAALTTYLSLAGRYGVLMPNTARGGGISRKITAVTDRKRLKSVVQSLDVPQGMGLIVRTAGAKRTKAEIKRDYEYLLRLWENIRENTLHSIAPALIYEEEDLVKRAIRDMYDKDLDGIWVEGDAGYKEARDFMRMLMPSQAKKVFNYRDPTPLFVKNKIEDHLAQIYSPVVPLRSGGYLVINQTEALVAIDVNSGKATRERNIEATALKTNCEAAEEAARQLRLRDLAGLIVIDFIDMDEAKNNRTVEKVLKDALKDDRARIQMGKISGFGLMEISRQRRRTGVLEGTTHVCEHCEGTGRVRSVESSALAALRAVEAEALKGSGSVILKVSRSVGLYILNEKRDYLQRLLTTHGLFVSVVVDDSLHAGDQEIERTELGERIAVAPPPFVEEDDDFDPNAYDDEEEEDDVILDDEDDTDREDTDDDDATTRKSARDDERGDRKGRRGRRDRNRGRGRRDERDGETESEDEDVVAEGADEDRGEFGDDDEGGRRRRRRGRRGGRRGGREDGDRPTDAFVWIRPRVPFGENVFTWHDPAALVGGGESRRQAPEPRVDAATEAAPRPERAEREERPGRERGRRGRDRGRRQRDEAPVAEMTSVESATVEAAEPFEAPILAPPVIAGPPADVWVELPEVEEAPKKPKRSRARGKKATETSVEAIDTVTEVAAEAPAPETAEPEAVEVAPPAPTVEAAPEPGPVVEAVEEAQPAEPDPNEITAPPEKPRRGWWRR
Assay: pull-down; flag-tagged, genomically encoded RNase E pulled down from C. crescentus; degradosome components assessed by SDS–PAGE

B1: Caulobacter crescentus polynucleotide phosphorylase (enzyme, UniProt B8GWZ0 1-712, looked up)
chain: MFDIKRKTIEWGGKTLVLETGRIARQADGAVLATMGETVVLATAVFAKSQKPGQDFFPLTVNYQEKTFAAGKIPGGFFKREGRPSEKETLVSRLIDRPIRPLFVKGFKNEVQVVVTVLQHDLENDPDILGMVAASAALCLSGAPFMGPIGAARVGWVDGAYVLNPTLDEMKESKMDLVVAGTADAVMMVESEIQELSEEIVLGGVNFAHQQMQAVIDAIIDLAEHAAKEPFAFEPEDTDAIKAKMKDLVGADIAAAYKIQKKQDRYEAVGAAKKKAIAALGLSDENPTGYDPLKLGAIFKELEADVVRRGILDTGLRIDGRDVKTVRPILGEVGILPRTHGSALFTRGETQAIVVATLGTGDDEQFIDALEGTYKESFLLHYNFPPYSVGETGRMGSPGRREIGHGKLAWRALRPMLPTKEDFPYTIRLVSEITESNGSSSMATVCGSSLAMMDAGVPLVRPVSGIAMGLILEQDGFAVLSDILGDEDHLGDMDFKVAGTSEGLTSLQMDIKIAGITPAIMEQALAQAKEGRAHILGEMNKAMDAPRADVGDFAPKIETINIPTDKIREVIGSGGKVIREIVATTGAKVDINDDGVVKVSASDGAKIKAAIDWIKSITDEAEVGKIYDGKVVKVVDFGAFVNFFGAKDGLVHVSQISNERVAKPSDVLKEGQMVKVKLLGFDDRGKTKLSMKVVDQETGEDLSKKEAAAEEA
notes: polynucleotide phosphorylase, pnp gene (CC0034), amplified from genomic DNA of C. crescentus strain NA1000 with primers from the start codon to the stop codon; Two alternative constructs were made (GST-PNPase from pGEX-6p-1, GST cut off with PreScission protease; 6xHis-PNPase from pET-DUET); the two tags are not on one chain; also called PNPase; C. crescentus PNPase; source: E. coli, purified …
binding: binds

From publication PMC3376730, “Crystal structure of Caulobacter crescentus polynucleotide phosphorylase reveals a mechanism of RNA substrate channelling and RNA degradosome assembly” (Open Biology, 2012)
